This passage reports binding results from paper doi:10.1101/2023.02.10.527983.

Amino acid sequences for entries named in this document (tags omitted).
UniProt P35222: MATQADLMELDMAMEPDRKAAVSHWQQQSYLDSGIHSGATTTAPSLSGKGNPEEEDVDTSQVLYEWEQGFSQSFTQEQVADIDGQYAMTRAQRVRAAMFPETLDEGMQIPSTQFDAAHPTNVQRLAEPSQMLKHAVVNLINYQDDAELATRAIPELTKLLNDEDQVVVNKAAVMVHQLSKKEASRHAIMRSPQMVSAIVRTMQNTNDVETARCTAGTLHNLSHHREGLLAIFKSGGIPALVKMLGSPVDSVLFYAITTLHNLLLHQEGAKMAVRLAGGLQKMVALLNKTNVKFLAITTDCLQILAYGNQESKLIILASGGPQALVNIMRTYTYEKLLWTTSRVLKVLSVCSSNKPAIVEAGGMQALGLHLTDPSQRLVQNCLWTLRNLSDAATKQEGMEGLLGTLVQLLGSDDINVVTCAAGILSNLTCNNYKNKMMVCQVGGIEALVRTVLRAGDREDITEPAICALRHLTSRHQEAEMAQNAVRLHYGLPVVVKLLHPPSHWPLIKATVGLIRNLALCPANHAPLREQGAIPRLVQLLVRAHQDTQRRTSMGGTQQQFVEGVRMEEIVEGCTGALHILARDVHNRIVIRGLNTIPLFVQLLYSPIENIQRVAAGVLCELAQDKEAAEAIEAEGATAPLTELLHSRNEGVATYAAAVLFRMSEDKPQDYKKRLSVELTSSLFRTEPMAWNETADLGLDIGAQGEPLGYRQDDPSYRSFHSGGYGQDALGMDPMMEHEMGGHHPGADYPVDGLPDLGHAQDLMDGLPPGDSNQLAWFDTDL

This assay has as its target T1, USP10 residues 7-21 peptide (USP10^7-21).
T1 sequence (peptide): QYIFGDFSPDEFNQF
The assay can be described thus: peptide or protein array.

These are yes or no findings as the source states them, for the method shown. Some entries that bind do so weakly or less than the wild type.

Consider “recombinant β-Catenin (from UniProt P35222 1-781)”, for which the binding result is “binds”.
